Source: ChEMBL document CHEMBL3988442, “University of Dundee, Small-Polar-MMV Screening Library” (2021).

T. brucei: 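Whole-parasite assay of Trypanosoma brucei over 72 hours; the read-out is not stated. Tested at 30 µM. The record gives no direction; compounds that gave an IC50 in retests scored well above the rest, so higher reads as stronger inhibition. Values scatter widely below zero; nearly all retest evidence comes from the higher of the two concentrations used. Size under these conditions: about 64,000 compounds, about 940 of them at 50% or above in at least one test.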
Leishmania in macrophages: 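Cell assay of Leishmania donovani living inside macrophages; the read-out is not stated. Compounds at 30 µM. Direction is inferred from retests: higher values go with stronger inhibition. About 69,000 compounds were tested under these conditions; 1.5% (about 1,000) showed 50% or more at least once.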

Each number is a percent effect as filed. The record does not define 0% and 100%; most values in the screen are far below 50% and negative numbers occur (in some assays of this library far below -100). Compounds were drawn at random from those tested, without regard to their results. A dash means the value is not listed here; it may have been measured.

| SMILES | T. brucei | Leishmania in macrophages |
|---|---|---|
| `Cc1cc(C2CCCN2Cc2nc3c(cnn3C)c(=O)[nH]2)on1` (centres unmarked) | -10.64 | 29.48 |
| `[H][C@@]12OCCN(C(=O)CC3=CCCCC3)[C@@]1([H])CC[C@H]2OCC` | -7.784 | 20.23 |
| `[H][C@@]12CCC(=O)N(CCc3ccccc3)[C@]1([H])CCN(c1ccnc(C)n1)C2` | 28.91 | 15.68 |
| `Cc1cnc(C)c(Oc2ccc(Cl)c(CN3CCCC3)c2Cl)n1` | -29.95 | 32.06 |
| `Cc1cc(CNC(=O)NC(C)(CO)C2CC2)c(C)s1` (centres unmarked) | -20.06 | 14.73 |
| `CCOCCCn1c(NC(=O)c2cnn(C)c2)nc2ccccc21` | 64.95 | 13.8 |
| `C[C@H]1CC[C@H](C(=O)N2CCC(n3cc(C4(O)CCCC4)nn3)CC2)CC1` | -35.78 | 25.55 |
| `Cc1cc(CN2CCC(C(=O)O)(n3ccc(-c4ccco4)n3)CC2)on1` | -8.03 | 12.06 |
| `CNS(=O)(=O)Cc1ccc(CNc2cncc(-n3cccn3)n2)cc1` | 32.38 | 39.84 |
| `CCCc1ccc2oc(C(=O)N3CCCN(C)CC3)c(C)c2c1` | -34.01 | 26.54 |
| `CN(Cc1ccco1)C(=O)c1cccc(N2CCCC2=O)c1` | -15.39 | 23.26 |
| `CNc1nc(CNC(=O)Nc2cccc(Cl)c2Cl)cs1` | 6.868 | 22.54 |
| `O=C(NCC(F)(F)F)C(c1cccnc1)N1CCCC1` (centres unmarked) | 5.595 | 10.94 |
| `Cn1ncc2c(=O)[nH]c(CN(Cc3ccco3)C3CCCC3)nc21` | 28.8 | 23.58 |
| `O=C(C1CC=CC1)N1CCCn2nnc(CNc3ncccn3)c2C1` | -49.25 | 10.45 |
| `CN(C)C(=O)C1CN(Cc2ccc(C#N)cc2)c2ccccc2O1` (centres unmarked) | -15.61 | 6.468 |
| `CCCN1CCC(CC(=O)N(C)C(C)c2cncs2)CC1` (centres unmarked) | -4.696 | 11.52 |
| `CCCC1CCCN(C(=O)Nc2ccc(F)c(C(N)=O)c2)CC1` (centres unmarked) | 6.002 | 17.72 |
| `O=C(O)C(F)(F)F.[H][C@@]12COC[C@]1(COc1cccnc1)CN(C(=O)c1cc(C3CC3)on1)C2` | -64.35 | 50.64 |
| `COCC(C)NCc1ccc2[nH]c(C)c(C)c2c1` (centres unmarked) | 2.897 | 6.978 |
| `Cc1cnn(CC2CCCN2CC(=O)Nc2cc(C(C)(C)C)no2)c1` (centres unmarked) | 8.969 | 14.92 |
| `COCCCN1CC2(CCCCN2C(=O)COC)CC1=O` (centres unmarked) | -51.11 | 22.43 |
| `CC(C)CN1CCCn2nc(CNC(=O)CCCc3cn[nH]c3)cc2C1` | 49.89 | 33.63 |
| `O=C1N(Cc2ccccc2F)CCCC12CCN(C1CCSCC1)C2` (centres unmarked) | 8.316 | 16.4 |
| `NC(=O)CCn1cc(CNCCCc2csc(N)n2)c2ccccc21` | -22.71 | -7.76 |
| `Cc1cnc(N2CCC3(CCN(Cc4csc(C)n4)C3=O)C2)nc1.O=C(O)C(F)(F)F` (centres unmarked) | -69.17 | 19.08 |
| `CN1CCN(Cc2cn3c(n2)CNCC3)CC1.Cl.Cl.Cl` | -49.23 | -28.24 |
| `CCOc1cc(C(=O)n2cccn2)cc(OCC)c1OCC` | -9.587 | -7.173 |
| `CCc1c(C)nc(C)nc1N1C[C@@H](CN(CC)CCO)[C@@H](CO)C1` | -40.11 | -0.6836 |
| `Cn1ncc(C2CC(=O)NCc3nc4sccn4c32)c1C1CC1` (centres unmarked) | - | 11.04 |
| `CCCS(=O)(=O)CC(=O)N1CCCC1c1noc(C2CC2)n1` (centres unmarked) | -17.72 | 4.962 |
| `COCCO[C@H]1CCN(c2cc(OC)ncn2)[C@H]1Cc1ccncc1` | -92.88 | 17.19 |
| `[H][C@@]12OCCN(Cc3ccsc3)[C@@]1([H])CC[C@H]2Oc1ccccn1` | 4.23 | -47.52 |
| `Cc1cc2nc(C(C)C)cc(N(C)CC3CCCN(CCO)C3)n2n1` (centres unmarked) | 9.548 | 23.62 |
| `Cc1noc(C)c1CN1CCc2ncnc(-c3ccoc3)c2CC1.O=C(O)C(F)(F)F` | -51.79 | 12.33 |
| `COCc1nc(CN2CCN(c3ccc(OC)cc3)C(=O)C2C)no1` (centres unmarked) | -47 | -14.01 |
| `COC1CCN(CCNC(=O)NC(C)c2cccc(Cl)c2)CC1` (centres unmarked) | 9.167 | 6.711 |
| `Cc1csc(N2CCCN(C3Cc4ccccc4C3)CC2)n1` | 7.282 | 12.29 |
| `Clc1ccc(Cc2nc(CNCCn3cccn3)cs2)cc1` | 19.22 | 0.3872 |
| `COc1ccc(CN[C@@H]2CO[C@H](CNC(=O)N3CCOCC3)[C@H]2O)cc1` | -41.63 | 14.87 |
| `CC(C)c1ncc(CN2CCCC(CO)C2)cn1` (centres unmarked) | -6.264 | 7.725 |
| `O=C(NC1CC1)c1cc(C2CC2)nc2onc(C3CCNCC3)c12` | - | 10.43 |
| `CC(C)(C)OCC1CN(Cc2cccs2)S(=O)(=O)c2cnccc2O1` (centres unmarked) | 24.65 | 25.28 |
| `O=C(O)C(F)(F)F.O=C(c1cc[nH]n1)N1CCc2onc(COc3cccnc3)c2C1` | -601.9 | 23.28 |
| `COC(=O)Cn1c(=O)nc2n1C(=O)N(c1cccc(C)c1)C2` | -3.708 | -13.17 |
| `Cc1ccc(OCCCC(=O)NC(C)c2nnc3n2CCC3)cc1` (centres unmarked) | -15.08 | 3.777 |
| `CN1CCC(NC(=O)Nc2ccc(F)c(Br)c2)C1=O` (centres unmarked) | -6.828 | -6.301 |
| `O=C(NCC1CC1)C1=NOC2(CCN(Cc3ccc4c(c3)OCO4)C2)C1` (centres unmarked) | -9.044 | -16.3 |
| `Cc1cccc(C(C)(C)CNC(=O)CN(C)c2cnccn2)c1` | -32.56 | 20.04 |
| `NC(=O)NCCC(=O)N1CCC(c2cc(-c3ccccc3Cl)n[nH]2)CC1` | 23.71 | -1.866 |
| `O=C(c1cc(Cl)cc(Cl)c1)N1CCN(c2nccs2)CC1` | -75.72 | 30.43 |
| `Cc1cc(C)n(-c2ccc(CNCc3ccc(F)cc3F)cn2)n1` | 61.76 | -6.246 |
| `COCCCN1CCC(NC2CSCCc3ccccc32)CC1` (centres unmarked) | -115.4 | 13.66 |
| `CN1C(=O)CC(c2ccccc2)C12CCN(c1ncccn1)CC2` (centres unmarked) | -51.92 | -10.83 |
| `Cl.O=C(NC1CCCC1)c1ccc(C2CCCNC2)nc1` (centres unmarked) | -50.53 | -0.9065 |
| `CCn1c(C)cc(C(=O)NCc2ccc(CS(C)(=O)=O)cc2)c1C` | -9.63 | 10.01 |
| `[H][C@]12CCN(S(=O)(=O)N(C)C)C[C@@]1([H])CN(Cc1cnn(C)c1)C2` | -23.12 | 27.54 |
| `COc1cccc2c1OCC(CNC(=O)CCCN1CCOCC1)C2` (centres unmarked) | -5.275 | -7.821 |
| `Cc1ccc(CNC(=O)CN2C=Nc3ccccc3S2(=O)=O)s1` | 21.22 | 32.83 |
| `CS(=O)(=O)Nc1cccc(C(=O)Nc2ccc3c(c2)C(=O)NC3)c1` | 10.3 | -1.354 |
| `CNc1ccnc(NCCC(=O)Nc2ccccc2OC)n1` | 54.56 | 27.35 |
| `Cc1nnc(N2CCCC3(CN(Cc4nccn4C)CCO3)C2)o1` (centres unmarked) | -14.14 | 17.93 |
| `Cc1nccn1CCCNc1ccc(Cl)c(C#N)n1` | -23.54 | -28.54 |
| `N#Cc1cccc(NC2CC(=O)N(Cc3cccc(F)c3)C2)n1` (centres unmarked) | -12.92 | -25.96 |
| `O=C(O)C(F)(F)F.O=C(O)C(F)(F)F.[H][C@@]12COC[C@]1(COc1ccccn1)CN(C1CCOCC1)C2` | -7.981 | -6.25 |
| `Cc1ccc(S(=O)(=O)NC2CNC(=O)C2)cc1C` (centres unmarked) | -54.48 | 20.55 |
| `CC(C)n1cnnc1CNC(=O)c1cnn(Cc2ccccc2)c1` | -0.2567 | 19.21 |
| `CN(C)C(=O)N1CCN(CCn2nc3ccccn3c2=O)CC1` | -9.512 | 27.31 |
| `CCc1cnc(CNC(=O)N2CCCC(c3ncc[nH]3)C2)s1` (centres unmarked) | -1.398 | 21.04 |
| `CS(=O)(=O)N(Cc1ccon1)c1ccc(F)cc1` | 4.201 | 32.69 |

Repeated from the top, 6 entries:

| SMILES | T. brucei | Leishmania in macrophages |
|---|---|---|
| `Cc1cc(C2CCCN2Cc2nc3c(cnn3C)c(=O)[nH]2)on1` (centres unmarked) | -10.64 | 29.48 |
| `[H][C@@]12OCCN(C(=O)CC3=CCCCC3)[C@@]1([H])CC[C@H]2OCC` | -7.784 | 20.23 |
| `[H][C@@]12CCC(=O)N(CCc3ccccc3)[C@]1([H])CCN(c1ccnc(C)n1)C2` | 28.91 | 15.68 |
| `Cc1cnc(C)c(Oc2ccc(Cl)c(CN3CCCC3)c2Cl)n1` | -29.95 | 32.06 |
| `Cc1cc(CNC(=O)NC(C)(CO)C2CC2)c(C)s1` (centres unmarked) | -20.06 | 14.73 |
| `CCOCCCn1c(NC(=O)c2cnn(C)c2)nc2ccccc21` | 64.95 | 13.8 |